Results as given in paper PMC11793105, “A kalihinol analog disrupts apicoplast function and vesicular trafficking in P. falciparum malaria” (Science (New York, N.Y.), 2024).
Several values for one entry are separate records, joined by “and”; a condition that tells them apart may be missing. Identical values can stand only once.

How the values were obtained:
[1] = test system: Endoplasmin (PF3D7_1222300); test: Thermal proteome profiling: endoplasmin; type: binding, Plasmodium falciparum
[2] = test system: P. falciparum whole protein extracts; test: Thermal proteome profiling (TPP), proteome-wide; type: binding, Plasmodium falciparum
[3] = test system: P. falciparum 3D7 parasites; test: In vitro resistance selection and whole-genome sequencing variant analysis; type: cell-based, Plasmodium falciparum; settings: 10^8 cloned parasites, IC50 then gradually escalating dosage
SEC13 (PF3D7_1230700) = test: Thermal proteome profiling: SEC13; type: binding, Plasmodium falciparum

[C-]#[N+][C@]1(C)CC[C@H]2[C@@H]([C@@H](C(C)C)CC[C@]2(C)[N+]#[C-])[C@H]1O [MED6-189]
Tm of Endoplasmin ([1]; 100μM Med6-189, replicates r1 and r2 (DMSO 43.97 and 44.03)): 44.81 °C and 44.43 °C | stability of endoplasmin in TPP ([1]; MED6-189 vs DMSO controls): no change in stability | DTm = Tm_Chahine-Med6_AVG - Tm_Chahine-DMSO_AVG ([2]; LytB (PF3D7_0104400)): 0.84 | Tm_Chahine-Med6_AVG ([2]; LytB (PF3D7_0104400)): 49.5906 | DTm = Tm_Chahine-Med6_AVG - Tm_Chahine-DMSO_AVG ([2]; PIESP15 (PF3D7_0103900)): 0.29 | Tm_Chahine-Med6_AVG ([2]; PIESP15 (PF3D7_0103900)): 50.7511 | DTm = Tm_Chahine-Med6_AVG - Tm_Chahine-DMSO_AVG ([2]; RESA (PF3D7_0102200)): 1.48 | Tm_Chahine-Med6_AVG ([2]; RESA (PF3D7_0102200)): 46.7422 | time of continuous in vitro drug pressure until tolerant parasites emerged [3]: ~ 36 months | temperature up to which SEC13 is stabilized (previously observed melting temperature) (SEC13 (PF3D7_1230700); lysate with MED6-189, compared with DMSO profile of Dziekan et al.): > 49 °C | thermal denaturation of SEC13 (SEC13 (PF3D7_1230700); with MED6-189, over a 36°C range of temperatures (37-73°C)): no denaturation of SEC13 was observed
